According to paper doi:10.1101/2022.01.27.477315:

Assays:
[1] = biological target: GST-LC3 aa29-128; assay: pull-down
[2] = biological target: GST-LC3 aa29-128 truncated F52A mutant; assay: pull-down

B1: Myc-tagged FOXM1 (protein, UniProt Q08050 1-763)
chain: MKTSPRRPLILKRRRLPLPVQNAPSETSEEEPKRSPAQQESNQAEASKEVAESNSCKFPAGIKIINHPTMPNTQVVAIPNNANIHSIITALTAKGKESGSSGPNKFILISCGGAPTQPPGLRPQTQTSYDAKRTEVTLETLGPKPAARDVNLPRPPGALCEQKRETCADGEAAGCTINNSLSNIQWLRKMSSDGLGSRSIKQEMEEKENCHLEQRQVKVEEPSRPSASWQNSVSERPPYSYMAMIQFAINSTERKRMTLKDIYTWIEDHFPYFKHIAKPGWKNSIRHNLSLHDMFVRETSANGKVSFWTIHPSANRYLTLDQVFKPLDPGSPQLPEHLESQQKRPNPELRRNMTIKTELPLGARRKMKPLLPRVSSYLVPIQFPVNQSLVLQPSVKVPLPLAASLMSSELARHSKRVRIAPKVLLAEEGIAPLSSAGPGKEEKLLFGEGFSPLLPVQTIKEEEIQPGEEMPHLARPIKVESPPLEEWPSPAPSFKEESSHSWEDSSQSPTPRPKKSYSGLRSPTRCVSEMLVIQHRERRERSRSRRKQHLLPPCVDEPELLFSEGPSTSRWAAELPFPADSSDPASQLSYSQEVGGPFKTPIKETLPISSTPSKSVLPRTPESWRLTPPAKVGGLDFSPVQTSQGASDPLPDPLGLMDLSTTPLQSAPPLESPQRLLSSEPLDLISVPFGNSSPSDIDVPKPGSPEPQVSGLAANRSLTEGLVLDTMNDSLSKILLDISFPGLDEDPLGPDNINWSQFIPELQ
- binding [1]: binds
- binding [2]: no binding

No constants are given. Whether binding was seen depends on the method and setting. Binding seen in cells or lysates may run through a third protein. For some assays here: Binding can be weak; no strength is given. Tags and fused reporters may be left off the sequences shown.
